No constants are given. Whether binding was seen depends on the method and setting. Some results given as binding are weak or reduced against the parent protein; the word gives no strength.
What was measured:
[1] = molecular target: T1, Recombinant human matriptase (human) (UniProt Q9Y5Y6); test: incubation of 50 nM recombinant matriptase with 50 nM PCI, SDS-PAGE, immunoblot with anti-PCI and anti-matriptase
T1 sequence: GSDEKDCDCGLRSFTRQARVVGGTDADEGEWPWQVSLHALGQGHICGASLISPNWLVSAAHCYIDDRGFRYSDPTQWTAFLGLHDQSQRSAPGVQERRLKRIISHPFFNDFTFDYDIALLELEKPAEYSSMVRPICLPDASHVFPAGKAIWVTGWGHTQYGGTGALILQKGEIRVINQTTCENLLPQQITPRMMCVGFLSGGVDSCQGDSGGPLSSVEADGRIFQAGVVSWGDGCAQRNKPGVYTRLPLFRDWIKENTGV

The chains behind the UniProt entries cited, without tags or fusion partners. Residues count along the entry.
UniProt P05981, residues 45-417: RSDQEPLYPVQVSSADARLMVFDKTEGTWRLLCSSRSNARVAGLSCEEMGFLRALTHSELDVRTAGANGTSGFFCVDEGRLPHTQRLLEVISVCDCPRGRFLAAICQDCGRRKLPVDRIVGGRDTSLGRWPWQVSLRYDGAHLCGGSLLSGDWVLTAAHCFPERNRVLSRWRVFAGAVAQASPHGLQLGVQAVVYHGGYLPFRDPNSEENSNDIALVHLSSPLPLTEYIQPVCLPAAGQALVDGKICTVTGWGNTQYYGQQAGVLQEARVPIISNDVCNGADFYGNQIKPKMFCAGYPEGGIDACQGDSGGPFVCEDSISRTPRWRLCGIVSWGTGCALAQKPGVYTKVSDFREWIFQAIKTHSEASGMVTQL

[2] = molecular target: Recombinant human hepsin (R&D Systems 4776-SE-10) (human) (UniProt P05981); test: incubation of recombinant hepsin with PCI, immunoblot (FIG. 3A)
[3] = molecular target: Recombinant human hepsin (R&D Systems 4776-SE-10) (human) (UniProt P05981); test: incubation of 50 nM recombinant hepsin with 50 nM PCI, SDS-PAGE, immunoblot with anti-PCI and anti-hepsin
[4] = molecular target: T1, Recombinant human matriptase (human); test: incubation of recombinant matriptase with PCI, immunoblot (FIG. 3B)

Measured: binding

B1: Recombinant human protein C inhibitor (PCI, SERPINA5) (protein)
chain: HRHHPREMKKRVEDLHVGATVAPSSRRDFTFDLYRALASAAPSQSIFFSPVSISMSLAMLSLGAGSSTKMQILEGLGLNLQKSSEKELHRGFQQLLQELNQPRDGFQLSLGNALFTDLVVDLQDTFVSAMKTLYLADTFPTNFRDSAGAMKQINDYVAKQTKGKIVDLLKNLDSNAVVIMVNYIFFKAKWETSFNHKGTQEQDFYVTSETVVRVPMMSREDQYHYLLDRNLSCRVVGVPYQGNATALFILPSEGKMQQVENGLSEKTLRKWLKMFKKRQLELYLPKFSIEGSYQLEKVLPSLGISNVFTSHADLSGISNHSNIQVSEMVHKAVVEVDESGTRAAAATGTIFTFRSARLNSQRLVFNRPFLMFIVDNNILFLGKVNRP
binds: all assays above

Source: patent US20200155643A1
